≈ marks a conversion by molar mass, not a printed value.
Legend:
[1] = test system: vancomycin resistant E. faecium ATCC 700221 (VRE); test: Library hits: MIC/MBC against VRE; assay type: cell-based
MRSA USA300 = test: Library hits: MIC/MBC against MRSA; assay type: cell-based; settings: Staphylococcus aureus

What does the source list for `Clc1ccc(CO/N=C(\Cn2ccnc2)c2ccc(Cl)cc2Cl)c(Cl)c1` [Oxiconazole]?
MIC [1]: > 16 µM; MIC (MRSA USA300): 2 µM (≈ 0.858 µg/mL)
